PubChem BioAssay AID1053208 | Peter MacCallum Cancer Centre, 2014

- Purpose: 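Genes whose silencing cuts survival of bone tumour cells only with doxorubicin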 (primary screen)
- Cell system: mouse osteosarcoma cells, early-passage culture from an engineered mouse model of fibroblastic bone tumour
- Knock-down reagent: siRNA pool against mouse genes, 40 nM
- Timing: about 120 h (48 h before drug, then 72 h with drug)
- Challenge: doxorubicin 100 nM for 72 h, roughly 30-40% inhibitory dose
- Measurement: 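Viability read as ATP luminescence after 72 h of 100 nM doxorubicin or none, duplicate wells averaged, scaled to non-targeting siRNA, then expressed as robust z-scores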
- Reading the numbers: viability z-score with doxorubicin: higher = more viable cells under doxorubicin; viability z-score without drug: higher = more viable cells with knock-down alone
- Hit rule: 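a pool counts as active when its viability z-score with doxorubicin is -2 or below and its z-score without drug lies between -2 and 2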
Shown is an unselected part of about 17,000 reagents. 788 of them (4.7%) were called active. 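Calls rest on z-score classes alone; an extra cut-off of viability at most 70% of control was not applied to them.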 The numbers tell different reagents against one gene apart. Further read-outs or replicates are left out here.

Target gene	reagent no.	combined z-score class	viability z-score with doxorubicin	viability z-score without drug	outcome
Zp3 (zona pellucida glycoprotein 3)	1	no change with or without drug	0.22	-1.52	inactive
Ccdc88c (coiled-coil domain containing 88C)	1	no change with or without drug	1.57	0.51	inactive
Hpcal4 (hippocalcin-like 4)	1	no change with or without drug	0.34	0.51	inactive
Vmn1r19 (vomeronasal 1 receptor 19)	1	low cell count with doxorubicin only	-2.47	-0.84	active
Bpifb2 (BPI fold containing family B, member 2)	1	no change with or without drug	1.12	1.18	inactive
Cdv3	1	low cell count with doxorubicin only	-2.25	-1.35	active
Spef1 (sperm flagellar 1)	1	no change with or without drug	1.8	-0.17	inactive
Ampd2 (adenosine monophosphate deaminase 2)	1	no change with or without drug	-0.67	-0.51	inactive
Tbc1d10c (TBC1 domain family, member 10c)	1	no change with or without drug	-1.01	-0.17	inactive
Hadh (hydroxyacyl-Coenzyme A dehydrogenase)	1	no change with or without drug	0.45	-1.01	inactive
Zan (zonadhesin)	1	no change with or without drug	1.01	0.84	inactive
Pank2 (pantothenate kinase 2)	1	high cell count with doxorubicin only	2.25	-0.67	inactive
Vps33a (VPS33A CORVET/HOPS core subunit)	1	no change with or without drug	-0.22	0.34	inactive
Tpd52l1 (tumor protein D52-like 1)	1	no change with or without drug	0.56	-0.51	inactive
Cyp2d10 (cytochrome P450, family 2, subfamily d, polypeptide 10)	1	no change with or without drug	-0.22	0.34	inactive
Rad54l (RAD54 like (S. cerevisiae))	1	no change with or without drug	1.35	0.51	inactive
Sirt7 (sirtuin 7)	1	no change with or without drug	0	-0.17	inactive
Usp13 (ubiquitin specific peptidase 13 (isopeptidase T-3))	1	no change with or without drug	-0.9	-0.51	inactive
Hat1 (histone aminotransferase 1)	1	no change with or without drug	-1.01	0.17	inactive

4 entries from above in another layout:
{"Target gene":"Spef1 (sperm flagellar 1)","reagent no.":1,"combined z-score class":"no change with or without drug","viability z-score with doxorubicin":1.8,"viability z-score without drug":-0.17,"outcome":"inactive"}
{"Target gene":"Ampd2 (adenosine monophosphate deaminase 2)","reagent no.":1,"combined z-score class":"no change with or without drug","viability z-score with doxorubicin":-0.67,"viability z-score without drug":-0.51,"outcome":"inactive"}
{"Target gene":"Tbc1d10c (TBC1 domain family, member 10c)","reagent no.":1,"combined z-score class":"no change with or without drug","viability z-score with doxorubicin":-1.01,"viability z-score without drug":-0.17,"outcome":"inactive"}
{"Target gene":"Hadh (hydroxyacyl-Coenzyme A dehydrogenase)","reagent no.":1,"combined z-score class":"no change with or without drug","viability z-score with doxorubicin":0.45,"viability z-score without drug":-1.01,"outcome":"inactive"}

The listing continues.
Target gene	reagent no.	combined z-score class	viability z-score with doxorubicin	viability z-score without drug	outcome
Tcaf3 (TRPM8 channel-associated factor 3)	1	no change with or without drug	-1.57	0.84	inactive
Ctdp1 (CTD phosphatase subunit 1)	1	no change with or without drug	0.11	-0.34	inactive
Tmem131 (transmembrane protein 131)	1	no change with or without drug	1.12	0.51	inactive
Tctn3 (tectonic family member 3)	1	no change with or without drug	-1.01	1.52	inactive
Klrb1c (killer cell lectin-like receptor subfamily B member 1C)	1	no change with or without drug	-1.01	-0.67	inactive
Cct2 (chaperonin containing TCP1 subunit 2)	1	low cell count without drug only	0.11	-2.53	inactive
Pik3r2 (phosphoinositide-3-kinase regulatory subunit 2)	1	no change with or without drug	-0.11	-1.85	inactive
Sart3 (squamous cell carcinoma antigen recognized by T cells 3)	1	no change with or without drug	0.22	1.85	inactive
Tmem143 (transmembrane protein 143)	1	no change with or without drug	0.22	0.17	inactive
Ank1 (ankyrin 1, erythroid)	1	no change with or without drug	0.67	-0.17	inactive
Ogn (osteoglycin)	1	no change with or without drug	-0.45	0.34	inactive
Dync1h1 (dynein cytoplasmic 1 heavy chain 1)	1	no change with or without drug	-0.45	0.17	inactive
Osgin2 (oxidative stress induced growth inhibitor family member 2)	1	no change with or without drug	1.01	1.18	inactive
Inka2 (inka box actin regulator 2)	1	low cell count with doxorubicin only	-2.36	-0.84	active
Dab2 (disabled 2, mitogen-responsive phosphoprotein)	1	no change with or without drug	0.45	0.17	inactive
Dab2 (disabled 2, mitogen-responsive phosphoprotein)	2	no change with or without drug	0.67	0.67	inactive
